Experimental data published in paper doi:10.1101/2021.09.16.460581.
These are yes or no findings as the source states them, for the method shown. In cells and extracts the contact can be indirect. Some binding calls cover weakened binding; strength is not graded here. For some assays here: Where a sequence is shown, tags or fusion partners need not be part of it.

The chains behind the UniProt entries cited, without tags or fusion partners.
UniProt Q12329: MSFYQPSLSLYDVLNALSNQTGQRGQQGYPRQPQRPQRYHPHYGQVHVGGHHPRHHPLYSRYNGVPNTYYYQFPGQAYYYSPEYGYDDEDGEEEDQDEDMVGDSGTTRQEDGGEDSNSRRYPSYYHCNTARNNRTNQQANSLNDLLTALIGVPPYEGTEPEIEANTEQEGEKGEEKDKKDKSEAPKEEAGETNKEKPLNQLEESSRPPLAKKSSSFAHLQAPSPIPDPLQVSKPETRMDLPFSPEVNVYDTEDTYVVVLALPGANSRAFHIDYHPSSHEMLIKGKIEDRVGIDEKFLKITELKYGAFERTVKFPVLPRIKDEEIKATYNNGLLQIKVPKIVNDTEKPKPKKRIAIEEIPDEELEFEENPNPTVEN
UniProt P29469: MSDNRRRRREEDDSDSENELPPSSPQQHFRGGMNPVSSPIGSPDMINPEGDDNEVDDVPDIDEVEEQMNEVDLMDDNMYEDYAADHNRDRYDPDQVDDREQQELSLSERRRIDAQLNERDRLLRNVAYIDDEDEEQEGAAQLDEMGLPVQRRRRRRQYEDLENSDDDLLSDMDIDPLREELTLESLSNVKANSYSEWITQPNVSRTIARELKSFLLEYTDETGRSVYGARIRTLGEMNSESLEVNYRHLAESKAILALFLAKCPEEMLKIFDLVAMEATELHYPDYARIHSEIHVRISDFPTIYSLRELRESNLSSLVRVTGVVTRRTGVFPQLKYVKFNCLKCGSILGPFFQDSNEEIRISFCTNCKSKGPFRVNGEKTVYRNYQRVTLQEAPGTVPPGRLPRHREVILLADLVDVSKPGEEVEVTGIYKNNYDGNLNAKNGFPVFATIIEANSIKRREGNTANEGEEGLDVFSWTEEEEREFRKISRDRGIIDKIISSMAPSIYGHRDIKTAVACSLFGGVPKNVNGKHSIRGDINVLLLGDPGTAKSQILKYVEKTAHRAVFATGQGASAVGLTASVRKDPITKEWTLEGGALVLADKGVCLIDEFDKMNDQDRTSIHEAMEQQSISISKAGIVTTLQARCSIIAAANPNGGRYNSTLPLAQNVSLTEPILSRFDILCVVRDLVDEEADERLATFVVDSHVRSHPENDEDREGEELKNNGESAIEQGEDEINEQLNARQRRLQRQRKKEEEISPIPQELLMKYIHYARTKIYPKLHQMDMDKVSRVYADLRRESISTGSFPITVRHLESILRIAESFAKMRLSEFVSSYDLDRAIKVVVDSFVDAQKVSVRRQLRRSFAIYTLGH

T1: Mrc1-FLAG (S. cerevisiae) (UniProt P25588)
T1 sequence: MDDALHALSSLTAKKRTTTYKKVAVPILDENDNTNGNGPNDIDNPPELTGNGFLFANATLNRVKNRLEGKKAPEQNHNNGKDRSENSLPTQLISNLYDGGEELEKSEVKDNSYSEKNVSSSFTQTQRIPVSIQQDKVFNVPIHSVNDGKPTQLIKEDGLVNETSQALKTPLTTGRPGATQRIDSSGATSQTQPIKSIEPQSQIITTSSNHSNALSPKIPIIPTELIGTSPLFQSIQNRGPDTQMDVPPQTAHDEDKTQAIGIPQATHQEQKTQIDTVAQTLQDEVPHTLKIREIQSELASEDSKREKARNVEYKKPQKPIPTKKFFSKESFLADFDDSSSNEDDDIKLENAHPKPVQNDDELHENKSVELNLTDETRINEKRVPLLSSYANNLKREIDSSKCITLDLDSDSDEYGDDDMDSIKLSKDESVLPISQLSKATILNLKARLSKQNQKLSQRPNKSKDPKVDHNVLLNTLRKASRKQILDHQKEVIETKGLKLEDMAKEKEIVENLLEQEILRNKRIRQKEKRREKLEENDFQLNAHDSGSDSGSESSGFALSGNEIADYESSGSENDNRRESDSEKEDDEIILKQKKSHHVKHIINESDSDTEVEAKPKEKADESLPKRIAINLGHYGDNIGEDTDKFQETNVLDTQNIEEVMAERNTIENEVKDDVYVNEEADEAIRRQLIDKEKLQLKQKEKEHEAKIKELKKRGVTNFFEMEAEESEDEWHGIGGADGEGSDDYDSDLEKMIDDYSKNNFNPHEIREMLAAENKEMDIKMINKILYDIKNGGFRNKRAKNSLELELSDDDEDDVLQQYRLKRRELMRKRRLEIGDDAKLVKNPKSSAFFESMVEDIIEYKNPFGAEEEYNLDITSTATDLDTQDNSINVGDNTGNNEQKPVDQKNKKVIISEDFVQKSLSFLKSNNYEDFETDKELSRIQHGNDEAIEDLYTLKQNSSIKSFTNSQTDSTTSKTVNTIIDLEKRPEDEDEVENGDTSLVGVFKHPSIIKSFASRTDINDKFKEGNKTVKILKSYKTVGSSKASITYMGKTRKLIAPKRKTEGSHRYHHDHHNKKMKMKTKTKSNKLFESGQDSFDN

T2: Btn2-VN (S. cerevisiae) (UniProt P53286)
T2 sequence: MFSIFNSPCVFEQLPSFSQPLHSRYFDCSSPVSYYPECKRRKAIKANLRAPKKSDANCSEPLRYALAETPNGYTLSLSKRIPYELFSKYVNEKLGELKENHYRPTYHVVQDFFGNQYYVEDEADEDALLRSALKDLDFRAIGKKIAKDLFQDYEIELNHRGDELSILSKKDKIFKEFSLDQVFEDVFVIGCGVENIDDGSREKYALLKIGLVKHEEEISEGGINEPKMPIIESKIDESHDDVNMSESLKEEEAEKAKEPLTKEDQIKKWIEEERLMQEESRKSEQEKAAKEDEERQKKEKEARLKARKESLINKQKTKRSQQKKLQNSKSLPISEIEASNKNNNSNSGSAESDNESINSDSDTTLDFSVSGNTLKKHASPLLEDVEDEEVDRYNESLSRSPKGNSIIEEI

T3: Mrc1-VC/VN (S. cerevisiae) (UniProt P25588)
T3 sequence: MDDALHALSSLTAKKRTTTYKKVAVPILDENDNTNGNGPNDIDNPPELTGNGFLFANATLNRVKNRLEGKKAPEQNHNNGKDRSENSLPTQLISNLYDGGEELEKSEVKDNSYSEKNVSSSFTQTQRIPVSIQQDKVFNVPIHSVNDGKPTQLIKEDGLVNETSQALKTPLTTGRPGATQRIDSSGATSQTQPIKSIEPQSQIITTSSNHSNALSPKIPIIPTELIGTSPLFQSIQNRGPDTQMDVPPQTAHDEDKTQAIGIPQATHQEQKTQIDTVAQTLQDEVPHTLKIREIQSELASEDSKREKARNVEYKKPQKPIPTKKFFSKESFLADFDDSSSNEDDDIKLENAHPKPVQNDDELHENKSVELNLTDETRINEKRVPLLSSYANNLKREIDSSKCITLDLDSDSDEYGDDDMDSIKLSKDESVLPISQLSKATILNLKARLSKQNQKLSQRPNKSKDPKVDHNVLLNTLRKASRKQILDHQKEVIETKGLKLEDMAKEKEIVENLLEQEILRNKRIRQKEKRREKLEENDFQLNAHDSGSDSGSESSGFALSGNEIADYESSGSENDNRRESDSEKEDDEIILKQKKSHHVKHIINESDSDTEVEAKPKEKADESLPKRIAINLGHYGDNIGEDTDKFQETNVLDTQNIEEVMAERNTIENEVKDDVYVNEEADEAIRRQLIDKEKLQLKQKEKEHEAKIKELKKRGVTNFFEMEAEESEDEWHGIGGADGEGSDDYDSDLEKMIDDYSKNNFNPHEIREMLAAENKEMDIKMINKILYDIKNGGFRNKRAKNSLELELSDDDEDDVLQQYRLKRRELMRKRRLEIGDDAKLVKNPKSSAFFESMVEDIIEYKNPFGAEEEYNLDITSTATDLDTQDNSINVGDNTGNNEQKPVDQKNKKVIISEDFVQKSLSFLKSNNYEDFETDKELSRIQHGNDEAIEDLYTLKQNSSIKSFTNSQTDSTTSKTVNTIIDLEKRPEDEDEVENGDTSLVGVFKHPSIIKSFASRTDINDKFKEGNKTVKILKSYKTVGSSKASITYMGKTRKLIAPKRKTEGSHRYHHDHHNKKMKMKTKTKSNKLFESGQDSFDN


Columns and labels:
[1] = molecular target: T1, Mrc1-FLAG (S. cerevisiae); test: co-IP
Btn2-VN (S. cerevisiae) = molecular target: T2, Btn2-VN (S. cerevisiae); test: split reporter
[2] = molecular target: T3, Mrc1-VC/VN (S. cerevisiae); test: split reporter

Molecule	binding [1]	binding [2]	also measured
Hsp42 (BiFC fusion) (from UniProt Q12329 1-375)	–	–	binding (Btn2-VN (S. cerevisiae)): binds
Ctf4 (protein, UniProt Q01454 1-927) MVSVIDKLVFDFGGKTLVSLAPDNNTLCVANKNGLTKILKTNNPEEEPETLDSSKLVSSIKCYSNSHFLMTTMQGDALRYNIDSSQEELLARFALPLRDCCVIHSGKMAVFGGDDLELILLELDDETHKKHAIKIDEQVSQISYNSQMNILAVSMINGKVQIFSLTSTIPNKVHELNDYIVANSYDDTHRDKILSNMMDDIDKDNDNDLSETADPDENNVADPEFCAANRICTRVAWHPKGLHFALPCADDTVKIFSIKGYSLQKTLSTNLSSTKAHFIDLQFDPLRGTYIAAVDLNNKLTVWNWETSEIHYTREFKRKITNIAWKIQADSKTLDLVLGTWSGSIAIVQNLAESVVSNIPDQSVAESSTKHGLFVDSESDLENLEGNDDINKSDKLFSDITQEANAEDVFTQTHDGPSGLSEKRKYNFEDEEDFIDDDDGAGYISGKKPHNEHSYSRVHKTHSFPISLANTGKFRYMPFSPAGTPFGFTDRRYLTMNEVGYVSTVKNSEQYSITVSFFDVGRFREYHFEDLFGYDLCFLNEKGTLFGQSKTGQIQYRPHDSIHSNWTKIIPLQAGERITSVAATPVRVIVGTSLGYFRSFNQFGVPFAVEKTSPIVALTAQNYRVFSVHYSQFHGLSYSLSELGTSSKRYYKRECPLPMSLPNINSDMKKDANLDYYNFNPMGIKSLFFSSYGDPCIFGSDNTLLLLSKWRSPEESKWLPILDSNMEIWKMSGGKETTDIHVWPLALAYDTLNCILVKGKHIWPEFPLPLPSEMEIRMPVFVKSKLLEENKAILNKKNEIGADTEAEEGEEDKEIQIPVSMAAEEEYLRSKVLSELLTDTLENDGEMYGNENEVLAALNGAYDKALLRLFASACSDQNVEKALSLAHELKQDRALTAAVKISERAELPSLVKKINNIREARYEQQLK	binds	–	–
Btn2-HA (protein, UniProt P53286 1-410) MFSIFNSPCVFEQLPSFSQPLHSRYFDCSSPVSYYPECKRRKAIKANLRAPKKSDANCSEPLRYALAETPNGYTLSLSKRIPYELFSKYVNEKLGELKENHYRPTYHVVQDFFGNQYYVEDEADEDALLRSALKDLDFRAIGKKIAKDLFQDYEIELNHRGDELSILSKKDKIFKEFSLDQVFEDVFVIGCGVENIDDGSREKYALLKIGLVKHEEEISEGGINEPKMPIIESKIDESHDDVNMSESLKEEEAEKAKEPLTKEDQIKKWIEEERLMQEESRKSEQEKAAKEDEERQKKEKEARLKARKESLINKQKTKRSQQKKLQNSKSLPISEIEASNKNNNSNSGSAESDNESINSDSDTTLDFSVSGNTLKKHASPLLEDVEDEEVDRYNESLSRSPKGNSIIEEI	binds	–	–
Btn2-VN (protein, UniProt P53286 1-410) MFSIFNSPCVFEQLPSFSQPLHSRYFDCSSPVSYYPECKRRKAIKANLRAPKKSDANCSEPLRYALAETPNGYTLSLSKRIPYELFSKYVNEKLGELKENHYRPTYHVVQDFFGNQYYVEDEADEDALLRSALKDLDFRAIGKKIAKDLFQDYEIELNHRGDELSILSKKDKIFKEFSLDQVFEDVFVIGCGVENIDDGSREKYALLKIGLVKHEEEISEGGINEPKMPIIESKIDESHDDVNMSESLKEEEAEKAKEPLTKEDQIKKWIEEERLMQEESRKSEQEKAAKEDEERQKKEKEARLKARKESLINKQKTKRSQQKKLQNSKSLPISEIEASNKNNNSNSGSAESDNESINSDSDTTLDFSVSGNTLKKHASPLLEDVEDEEVDRYNESLSRSPKGNSIIEEI	–	binds	–
Cdc45 (protein, UniProt Q08032 1-650) MYYGISQFSEAYNKILRNSSSHSSCQLVIFVSCLNIDALCATKMLSLLFKKQLVQSQIVPIFGYSELRRHYSQLDDNINSLLLVGFGGVIDLEAFLEIDPQEYVIDTDEKSGEQSFRRDIYVLDAHRPWNLDNIFGSQIIQCFDDGTVDDTLGEQKEAYYKLLELDEESGDDELSGDENDNNGGDDEATDADEVTDEDEEDEDETISNKRGNSSIGPNDLSKRKQRKKQIHEYEGVLEEYYSQGTTVVNSISAQIYSLLSAIGETNLSNLWLNILGTTSLDIAYAQVYNRLYPLLQDEVKRLTPSSRNSVKTPDTLTLNIQPDYYLFLLRHSSLYDSFYYSNYVNAKLSLWNENGKKRLHKMFARMGIPLSTAQETWLYMDHSIKRELGIIFDKNLDRYGLQDIIRDGFVRTLGYRGSISASEFVEALTALLEVGNSTDKDSVKINNDNNDDTDGEEEEDNSAQKLTNLRKRWVSNFWLSWDALDDRKVELLNRGIQLAQDLQRAIFNTGVAILEKKLIKHLRIYRLCVLQDGPDLDLYRNPLTLLRLGNWLIECCAESEDKQLLPMVLASIDENTDTYLVAGLTPRYPRGLDTIHTKKPILNNFSMAFQQITAETDAKVRIDNFESSIIEIRREDLSPFLEKLTLSGLL	binds	–	–

Further lines, with some results ahead:

binding [1]	binding [2]	Molecule	also measured
binds	–	Mcm2 (from UniProt P29469 1-868)	–
–	binds	Ulp2-VN/VC (protein, UniProt P40537 1-1034) MSARKRKFNSLKPLDTLNSSRASSPRSSASLPPKRYNTFRKDPKIVDHLNNASTKDFLPVLSMNSESKRQIELSDNDVDNNDEGEGVNSGCSDQDFEPLQSSPLKRHSSLKSTSNGLLFQMSNNLGNGSPEPAVASTSPNGSIISTKLNLNGQFSCVDSKTLRIYRHKAPCIMTFVSDHNHPKFSLYFQQSVIYNSQVNLLDDVELIILDKKNSFMAIILKDLKKVKMILDVNNSSININTNILIWSTASSASNKKIKSIKRFLLMSYSSSIKVEILDHKEQILERLKHLIHPISSSSPSLNMERAINSTKNAFDSLRLKKTKLSTNDDESPQIHTHFLSNKPHGLQSLTKRTRIASLGKKEHSISVPKSNISPSDFYNTNGTETLQSHAVSQLRRSNRFKDVSDPANSNSNSEFDDATTEFETPELFKPSLCYKFNDGSSYTITNQDFKCLFNKDWVNDSILDFFTKFYIESSIEKSIIKREQVHLMSSFFYTKLISNPADYYSNVKKWVNNTDLFSKKYVVIPINISYHWFSCIITNLDAILDFHQNKDKNDAINSDEISINNPLVNILTFDSLRQTHSREIDPIKEFLISYALDKYSIQLDKTQIKMKTCPVPQQPNMSDCGVHVILNIRKFFENPVETIDVWKNSKIKSKHFTAKMINKYFDKNERNSARKNLRHTLKLLQLNYISYLKKENLYEEVMQMEEKKSTNINNNENYDDDDEEIQIIENIDQSSKDNNAQLTSEPPCSRSSSISTTEREPTELHNSVVRQPTGEIITDNEDPVRAASPETASVSPPIRHNILKSSSPFISESANETEQEEFTSPYFGRPSLKTRAKQFEGVSSPIKNDQALSSTHDIMMPSPKPKRIYPSKKIPQLSSHVQSLSTDSMERQSSPNNTNIVISDTEQDSRLGVNSESKNTSGIVNRDDSDVNLIGSSLPNVAEKNHDNTQESNGNNDSLGKILQNVDKELNEKLVDIDDVAFSSPTRGIPRTSATSKGSNAQLLSNYGDENNQSQDSVWDEGRDNPILLEDEDP	–
–	binds	Ubx5-VN/VC (protein, UniProt Q06682 1-500) MSEGKVDEFMAITGADDAAIATQFIEMADGNLNTAISLFFENGGAALLSSNNTPTPSNSTPMAPTSVDSDADAQLAERLQREAYQQQQPDQDYVRPPDEARHEVLTETSGFPISYGGIGGRFEPLHRVNDMFDEGRPESIFNQRLDDTNTNTYINDNSSDSLDSEEENDDDEYEYVEEPVIELDEDGNIKEYTKLVRKPKTISKEQKLALLFRPPFSIMSKLDLDAAKQKARAKQKWIMINIQDSGIFQCQALNRDLWSSRPVKTIIKENFVFLQYQYESRNAQPYLQFYHLNNKDDLPHIAILDPITGERVKQWNRVVPIPEQFISEINEFLASFSLDPKVPNPTVNEPLPKVDPTTLTEEQQMELAIKESLNNNSSKSNQEEVPSTGEEQKRVQEPDPFSTIEARVHPEPPNKPGITTRIQIRTGDGSRLVRRFNALEDTVRTIYEVIKTEMDGFADSRFTLNDHQREDLIDKLNMTIADAGLKNSSLLLEKLDPEIE	–
